No constants are given. Whether binding was seen depends on the method and setting. Binding seen in cells or lysates may run through a third protein. Some entries that bind do so weakly or less than the wild type.
Assays:
[1] = molecular target: Axin (UniProt O35625); assay: co-IP; co-immunoprecipitation assay in HEK293T cells
[2] = molecular target: Axin (mouse (endogenous in mouse brain)) (UniProt O35625); assay: co-IP; co-immunoprecipitation with Axin from the mouse brain synaptosomal fraction
[3] = molecular target: Axin (mouse (endogenous in mouse brain)) (UniProt O35625); assay: co-IP; mouse brain P1 (pelleted nuclear fraction) and S2 (cytosol and light membranes) fractions; data not shown

Protein sequences, listed by entry. Tags and fused reporters are not part of them.
UniProt O35625: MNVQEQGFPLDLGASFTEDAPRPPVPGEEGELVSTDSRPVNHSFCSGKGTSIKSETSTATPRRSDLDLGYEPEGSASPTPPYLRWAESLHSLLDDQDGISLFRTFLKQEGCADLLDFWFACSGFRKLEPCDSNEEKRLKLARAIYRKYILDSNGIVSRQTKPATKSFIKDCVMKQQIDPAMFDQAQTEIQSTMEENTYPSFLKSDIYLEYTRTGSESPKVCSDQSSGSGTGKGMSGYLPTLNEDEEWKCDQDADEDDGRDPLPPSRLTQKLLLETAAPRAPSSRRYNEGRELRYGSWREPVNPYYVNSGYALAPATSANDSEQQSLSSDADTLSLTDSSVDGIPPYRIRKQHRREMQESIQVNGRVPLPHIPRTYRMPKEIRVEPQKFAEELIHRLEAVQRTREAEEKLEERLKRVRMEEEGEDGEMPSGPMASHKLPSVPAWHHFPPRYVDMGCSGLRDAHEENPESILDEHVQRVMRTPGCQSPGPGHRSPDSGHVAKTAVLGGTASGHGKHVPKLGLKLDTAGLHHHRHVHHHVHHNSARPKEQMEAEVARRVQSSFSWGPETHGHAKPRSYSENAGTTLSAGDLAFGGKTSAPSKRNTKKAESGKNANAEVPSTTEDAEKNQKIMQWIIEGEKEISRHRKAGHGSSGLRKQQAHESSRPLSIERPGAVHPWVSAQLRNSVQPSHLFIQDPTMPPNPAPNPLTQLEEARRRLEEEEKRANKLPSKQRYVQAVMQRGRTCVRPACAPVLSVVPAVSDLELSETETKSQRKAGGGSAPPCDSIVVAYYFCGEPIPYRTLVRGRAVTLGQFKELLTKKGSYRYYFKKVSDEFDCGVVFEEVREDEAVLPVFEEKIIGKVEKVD
UniProt P11798: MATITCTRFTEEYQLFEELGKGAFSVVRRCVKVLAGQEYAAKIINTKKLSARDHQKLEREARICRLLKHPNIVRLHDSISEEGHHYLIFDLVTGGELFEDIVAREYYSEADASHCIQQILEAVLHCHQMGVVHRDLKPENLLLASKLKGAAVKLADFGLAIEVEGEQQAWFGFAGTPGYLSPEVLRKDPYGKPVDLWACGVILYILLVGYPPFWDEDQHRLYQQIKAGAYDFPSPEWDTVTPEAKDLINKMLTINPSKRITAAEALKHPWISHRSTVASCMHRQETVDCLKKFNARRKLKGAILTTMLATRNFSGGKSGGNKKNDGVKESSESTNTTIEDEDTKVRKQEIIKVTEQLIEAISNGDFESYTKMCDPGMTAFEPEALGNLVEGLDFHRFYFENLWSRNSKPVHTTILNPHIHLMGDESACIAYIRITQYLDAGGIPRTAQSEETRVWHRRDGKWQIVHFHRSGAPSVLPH
UniProt P28652: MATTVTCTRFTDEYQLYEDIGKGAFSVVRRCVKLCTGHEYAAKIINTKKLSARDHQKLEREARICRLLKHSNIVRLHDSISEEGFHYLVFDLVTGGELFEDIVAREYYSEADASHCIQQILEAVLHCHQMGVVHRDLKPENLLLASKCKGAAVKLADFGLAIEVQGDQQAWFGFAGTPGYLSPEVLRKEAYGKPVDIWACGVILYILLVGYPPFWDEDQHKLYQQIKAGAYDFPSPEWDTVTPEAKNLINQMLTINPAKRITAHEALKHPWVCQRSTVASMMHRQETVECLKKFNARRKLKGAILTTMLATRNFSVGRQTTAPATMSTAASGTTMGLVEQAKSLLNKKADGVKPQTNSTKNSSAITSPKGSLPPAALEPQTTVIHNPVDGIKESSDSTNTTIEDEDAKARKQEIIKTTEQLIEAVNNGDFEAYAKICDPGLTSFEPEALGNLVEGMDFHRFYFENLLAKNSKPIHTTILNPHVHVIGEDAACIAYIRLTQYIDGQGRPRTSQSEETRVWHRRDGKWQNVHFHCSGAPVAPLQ

Row | binding [1] | binding [2] | binding [3] | Substance
1 | binds |  |  | CaMKIIα (from UniProt P11798 1-478)
2 | binds |  |  | CaMKIIβ (from UniProt P28652 1-542)
3 |  | binds | binds | Calcium/calmodulin-dependent protein kinase type II subunit alpha (from UniProt P11798 1-478)
